By UniProt entry, the sequences of proteins in these tests, tags left out. Residues count along the entry.
UniProt P01375, 77-233: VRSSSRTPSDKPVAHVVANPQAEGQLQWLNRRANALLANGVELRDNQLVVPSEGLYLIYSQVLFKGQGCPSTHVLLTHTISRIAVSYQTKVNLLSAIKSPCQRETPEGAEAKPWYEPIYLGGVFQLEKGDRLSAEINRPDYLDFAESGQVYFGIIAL

For at least one entry, the source does not settle the construct or the ends of the probe.
The sequences below were run against TNF-alpha (tumor necrosis factor alpha) (Homo sapiens) (UniProt P01375) (assay: ELONA). Conditions: 37 C; label: 5'-biotin; single-stranded DNA.
“ATGGCGCAGTCGGCGACAATCACTTTGGTTACTATTGGCC [DNA aptamer 5]”: binds.
“CACTGTAATCAGAGGCTTTTTTACTCTCGCTGCATTCCGG [DNA aptamer 8]”: binds.
“CACTGTTTGACGTTTCGGATTAAGGAGTCCGCTCGCACCC [DNA aptamer 14]”: binds.
“CCACGTCTACACTTACCCCTGTGACAGCTATACTCATCAC [DNA aptamer 12]”: binds.
“CCCCGCCATGTGCTTAGTGCAATAACGTTCTCACCGCCCC [DNA aptamer 13]”: binds.
“CCGACGTACTCGGTAGACAAGTCCCCTGAAGTGTGACGCC [DNA aptamer 17]”: binds.
“CGATCTACGTGGTGACTCATACGTGTCGATGTGCCTTTCC [DNA aptamer 3]”: binds.
“CGCGCGTAAATCTTCTTCTGTTACCCTCTCTTCATGTCGC [DNA aptamer 1]”: binds.
“CGCTGGAGGACGATGTTAATTAGACCGCAACTACATTGCA [DNA aptamer 2]”: binds.
“CGGTGTCCCGGCACTTTGATCGTCGACCTGTTGTATTGCC [DNA aptamer 6]”: binds.
“GCACACTAAGTTTCTACACGTCTCGTCGCCCTCTTTGTGC [DNA aptamer 4]”: binds.
“GCCCAGCGTCCGACACTAACTAGTCGCCAAACAATCAGCC [DNA aptamer 9]”: binds.
“GCGGCCGATAAGGTCTTTCCAAGCGAACGAATTGAACCGC [DNA aptamer 18]”: binds.
“GGCGGGGTCTCTAAAGTGTGTTATCATCTGCTTGTTGGCC [DNA aptamer 7]”: binds.
“TCCCATCAAAACCAAATTTCGGGTCTGCTCTCTCTCTGCC [DNA aptamer 15]”: binds.
“TGCACACCGGTGATTTAGCCTGGCGTGCTTCACCTTCACC [DNA aptamer 11]”: binds.
“TGGCGAGTATACTCACAAACCTCTCACAGGAACCTGGGGC [DNA aptamer 10]”: binds.
“TGGGGATGCGGTCTGCCTAACAACAGGGCTTCACTTACCC [DNA aptamer 16]”: binds.
